No constants are given. Whether binding was seen depends on the method and setting. Binding seen in cells or lysates may run through a third protein. Some binding calls cover weakened binding; strength is not graded here.
Target: leptin receptor (mouse (endogenous in mid brain)) (UniProt P48356)
Experiment: co-IP; mid brain homogenised in RIPA buffer with protease inhibitors; 500 µg total protein immunoprecipitated with 10 µg anti-leptin receptor antibody (ab5593) pre-coupled to protein A magnetic beads; immunoblot with anti-leptin (ab3583) or anti-leptin receptor antibody; each band is tissue extract mixed from three mice

Chains of the proteins cited; added tags and fusions are not shown. Lines headed by an entry give the natural chain unless they say otherwise; changes in a name come on top. A line that says so, or that is headed by a name, gives the form on record, which may keep a tag or linker. Residues count along the entry.
UniProt P48356, residues 22-1162: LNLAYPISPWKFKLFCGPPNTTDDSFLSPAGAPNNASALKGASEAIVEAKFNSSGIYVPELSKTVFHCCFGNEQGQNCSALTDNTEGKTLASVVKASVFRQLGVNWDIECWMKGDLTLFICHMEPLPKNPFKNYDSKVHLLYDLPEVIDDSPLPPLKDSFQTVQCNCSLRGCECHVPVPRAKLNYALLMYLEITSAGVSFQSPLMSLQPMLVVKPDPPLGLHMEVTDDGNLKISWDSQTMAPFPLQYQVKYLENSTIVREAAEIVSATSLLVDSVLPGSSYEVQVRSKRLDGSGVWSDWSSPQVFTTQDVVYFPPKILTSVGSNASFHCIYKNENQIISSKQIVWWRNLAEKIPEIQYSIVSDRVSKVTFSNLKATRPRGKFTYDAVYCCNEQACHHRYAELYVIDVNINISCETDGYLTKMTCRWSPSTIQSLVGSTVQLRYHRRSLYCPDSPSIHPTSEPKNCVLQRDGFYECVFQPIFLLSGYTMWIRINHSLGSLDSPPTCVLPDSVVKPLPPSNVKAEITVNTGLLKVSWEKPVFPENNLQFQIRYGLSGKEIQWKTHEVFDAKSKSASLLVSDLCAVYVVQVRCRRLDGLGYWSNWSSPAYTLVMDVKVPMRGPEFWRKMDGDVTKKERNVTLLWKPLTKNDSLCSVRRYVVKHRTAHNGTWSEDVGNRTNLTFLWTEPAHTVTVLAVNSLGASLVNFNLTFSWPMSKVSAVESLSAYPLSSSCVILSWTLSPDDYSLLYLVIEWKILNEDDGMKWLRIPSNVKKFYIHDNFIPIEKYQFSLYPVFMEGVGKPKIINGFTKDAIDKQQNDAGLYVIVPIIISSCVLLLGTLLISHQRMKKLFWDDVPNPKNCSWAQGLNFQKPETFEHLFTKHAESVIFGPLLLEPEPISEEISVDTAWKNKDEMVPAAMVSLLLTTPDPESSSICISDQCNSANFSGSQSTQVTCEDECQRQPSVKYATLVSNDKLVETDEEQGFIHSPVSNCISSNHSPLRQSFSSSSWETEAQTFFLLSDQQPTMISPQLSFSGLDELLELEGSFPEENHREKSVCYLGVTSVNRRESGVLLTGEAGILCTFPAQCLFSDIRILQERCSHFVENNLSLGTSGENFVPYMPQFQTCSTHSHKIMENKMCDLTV
wild-type leptin (P41160, residues 22-167): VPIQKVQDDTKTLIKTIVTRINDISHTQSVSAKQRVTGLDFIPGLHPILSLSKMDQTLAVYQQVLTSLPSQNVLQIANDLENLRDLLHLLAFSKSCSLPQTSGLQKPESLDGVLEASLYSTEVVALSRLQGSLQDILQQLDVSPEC
mutant V145E leptin (P41160, form named): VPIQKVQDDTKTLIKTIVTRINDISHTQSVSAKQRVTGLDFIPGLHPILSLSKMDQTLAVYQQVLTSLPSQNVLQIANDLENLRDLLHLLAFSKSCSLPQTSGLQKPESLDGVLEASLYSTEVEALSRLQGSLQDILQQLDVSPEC

Substance	binding
mutant V145E leptin (from UniProt P41160 22-167) (ligand)	binds
wild-type leptin (from UniProt P41160 22-167) (ligand)	binds

Reference: article PMC3000341
